Assay results from paper PMC8425198.
Results are given in words; binding and its absence hold for the method and conditions named. In cells and extracts the contact can be indirect. Here binding means that the protein was enriched with, or labelled near, the bait; the list need not be complete.

Protein sequences, listed by entry. Tags and fused reporters are not part of them. Residues count along the entry.
UniProt P54760, residues 16-987: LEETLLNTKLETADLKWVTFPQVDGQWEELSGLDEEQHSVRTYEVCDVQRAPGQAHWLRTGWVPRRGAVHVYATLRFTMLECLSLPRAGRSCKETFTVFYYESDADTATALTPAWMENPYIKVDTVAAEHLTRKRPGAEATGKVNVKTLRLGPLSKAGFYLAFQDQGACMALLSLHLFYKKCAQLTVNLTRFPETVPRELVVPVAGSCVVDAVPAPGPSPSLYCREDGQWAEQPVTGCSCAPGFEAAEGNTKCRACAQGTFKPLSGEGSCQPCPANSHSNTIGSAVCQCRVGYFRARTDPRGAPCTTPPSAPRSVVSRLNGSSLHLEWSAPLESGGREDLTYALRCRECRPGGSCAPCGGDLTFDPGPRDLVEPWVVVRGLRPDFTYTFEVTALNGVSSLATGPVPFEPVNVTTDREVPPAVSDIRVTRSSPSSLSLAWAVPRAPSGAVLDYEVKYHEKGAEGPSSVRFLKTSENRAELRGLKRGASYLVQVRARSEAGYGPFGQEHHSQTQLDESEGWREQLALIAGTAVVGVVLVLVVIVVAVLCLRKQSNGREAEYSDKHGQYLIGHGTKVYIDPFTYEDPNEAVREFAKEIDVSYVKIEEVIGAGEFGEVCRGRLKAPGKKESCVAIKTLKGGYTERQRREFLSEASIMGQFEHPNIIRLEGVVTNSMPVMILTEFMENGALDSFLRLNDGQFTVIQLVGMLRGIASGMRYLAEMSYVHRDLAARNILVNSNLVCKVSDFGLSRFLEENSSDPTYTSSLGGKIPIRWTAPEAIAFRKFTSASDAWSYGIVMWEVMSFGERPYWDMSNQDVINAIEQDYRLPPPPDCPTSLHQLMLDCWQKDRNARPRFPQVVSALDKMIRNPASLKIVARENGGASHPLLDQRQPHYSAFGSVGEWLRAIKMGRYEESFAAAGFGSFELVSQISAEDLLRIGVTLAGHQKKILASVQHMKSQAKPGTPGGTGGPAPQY
UniProt O43707: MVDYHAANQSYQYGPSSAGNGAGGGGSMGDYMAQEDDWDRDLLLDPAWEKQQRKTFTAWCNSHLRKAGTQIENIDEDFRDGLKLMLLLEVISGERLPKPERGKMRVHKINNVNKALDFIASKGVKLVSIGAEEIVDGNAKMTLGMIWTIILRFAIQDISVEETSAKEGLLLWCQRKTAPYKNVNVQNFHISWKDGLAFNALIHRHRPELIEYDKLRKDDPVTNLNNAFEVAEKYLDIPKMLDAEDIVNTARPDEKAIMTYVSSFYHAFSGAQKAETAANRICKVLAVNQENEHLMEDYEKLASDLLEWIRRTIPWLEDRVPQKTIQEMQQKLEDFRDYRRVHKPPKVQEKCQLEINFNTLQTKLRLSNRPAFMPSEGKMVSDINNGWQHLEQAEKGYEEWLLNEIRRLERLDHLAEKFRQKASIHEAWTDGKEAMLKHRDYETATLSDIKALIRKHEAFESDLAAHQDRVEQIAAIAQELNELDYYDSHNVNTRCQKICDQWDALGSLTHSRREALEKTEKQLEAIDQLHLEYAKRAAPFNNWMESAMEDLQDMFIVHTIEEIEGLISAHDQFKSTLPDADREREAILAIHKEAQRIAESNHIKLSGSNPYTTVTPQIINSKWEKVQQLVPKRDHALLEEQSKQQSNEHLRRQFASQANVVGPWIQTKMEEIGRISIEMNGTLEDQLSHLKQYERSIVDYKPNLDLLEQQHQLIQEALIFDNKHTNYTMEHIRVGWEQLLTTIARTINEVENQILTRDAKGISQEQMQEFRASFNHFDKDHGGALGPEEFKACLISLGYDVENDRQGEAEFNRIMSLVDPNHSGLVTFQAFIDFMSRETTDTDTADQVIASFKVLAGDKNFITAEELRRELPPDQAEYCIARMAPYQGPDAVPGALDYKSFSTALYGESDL
UniProt Q08462: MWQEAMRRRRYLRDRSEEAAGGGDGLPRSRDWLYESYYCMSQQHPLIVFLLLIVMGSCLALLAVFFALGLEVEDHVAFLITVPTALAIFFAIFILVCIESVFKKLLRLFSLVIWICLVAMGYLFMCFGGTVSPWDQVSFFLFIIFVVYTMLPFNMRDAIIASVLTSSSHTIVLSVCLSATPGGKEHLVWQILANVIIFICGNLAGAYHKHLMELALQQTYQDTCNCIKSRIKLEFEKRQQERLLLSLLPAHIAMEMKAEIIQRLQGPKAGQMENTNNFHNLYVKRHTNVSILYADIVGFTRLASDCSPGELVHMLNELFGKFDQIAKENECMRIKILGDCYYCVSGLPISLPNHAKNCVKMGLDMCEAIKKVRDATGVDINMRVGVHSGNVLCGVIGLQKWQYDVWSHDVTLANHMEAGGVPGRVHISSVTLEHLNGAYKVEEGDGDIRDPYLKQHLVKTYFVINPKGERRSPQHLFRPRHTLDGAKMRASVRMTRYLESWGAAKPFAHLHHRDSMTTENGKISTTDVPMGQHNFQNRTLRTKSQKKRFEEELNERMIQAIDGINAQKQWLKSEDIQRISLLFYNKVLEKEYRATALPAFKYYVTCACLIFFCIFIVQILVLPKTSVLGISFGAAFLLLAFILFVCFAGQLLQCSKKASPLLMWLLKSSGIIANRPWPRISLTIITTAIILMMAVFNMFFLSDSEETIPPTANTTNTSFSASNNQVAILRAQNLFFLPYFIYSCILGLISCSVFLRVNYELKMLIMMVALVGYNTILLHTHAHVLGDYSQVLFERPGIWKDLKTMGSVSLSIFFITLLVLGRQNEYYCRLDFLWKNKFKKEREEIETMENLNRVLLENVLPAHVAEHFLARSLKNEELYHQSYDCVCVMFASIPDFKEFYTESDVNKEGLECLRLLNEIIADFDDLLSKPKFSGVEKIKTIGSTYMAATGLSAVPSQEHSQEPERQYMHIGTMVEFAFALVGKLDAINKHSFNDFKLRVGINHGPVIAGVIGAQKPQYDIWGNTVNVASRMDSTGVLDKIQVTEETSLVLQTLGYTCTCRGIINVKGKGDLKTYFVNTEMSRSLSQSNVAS
UniProt P27824, residues 21-592: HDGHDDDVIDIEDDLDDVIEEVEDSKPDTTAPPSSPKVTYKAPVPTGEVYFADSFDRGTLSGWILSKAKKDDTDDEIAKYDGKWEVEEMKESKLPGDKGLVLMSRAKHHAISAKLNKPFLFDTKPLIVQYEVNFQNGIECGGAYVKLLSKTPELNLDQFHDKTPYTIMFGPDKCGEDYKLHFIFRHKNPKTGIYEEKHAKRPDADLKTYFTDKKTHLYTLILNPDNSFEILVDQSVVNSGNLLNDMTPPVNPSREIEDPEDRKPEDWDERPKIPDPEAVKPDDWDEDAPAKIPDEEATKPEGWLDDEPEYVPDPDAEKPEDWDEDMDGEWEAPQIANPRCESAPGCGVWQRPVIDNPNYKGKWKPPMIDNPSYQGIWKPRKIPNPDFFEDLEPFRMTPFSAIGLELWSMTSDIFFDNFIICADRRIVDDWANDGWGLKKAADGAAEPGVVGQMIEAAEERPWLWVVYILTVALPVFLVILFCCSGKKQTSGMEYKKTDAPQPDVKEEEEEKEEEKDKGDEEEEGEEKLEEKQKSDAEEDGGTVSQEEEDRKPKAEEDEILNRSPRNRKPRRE
UniProt Q9UJU6: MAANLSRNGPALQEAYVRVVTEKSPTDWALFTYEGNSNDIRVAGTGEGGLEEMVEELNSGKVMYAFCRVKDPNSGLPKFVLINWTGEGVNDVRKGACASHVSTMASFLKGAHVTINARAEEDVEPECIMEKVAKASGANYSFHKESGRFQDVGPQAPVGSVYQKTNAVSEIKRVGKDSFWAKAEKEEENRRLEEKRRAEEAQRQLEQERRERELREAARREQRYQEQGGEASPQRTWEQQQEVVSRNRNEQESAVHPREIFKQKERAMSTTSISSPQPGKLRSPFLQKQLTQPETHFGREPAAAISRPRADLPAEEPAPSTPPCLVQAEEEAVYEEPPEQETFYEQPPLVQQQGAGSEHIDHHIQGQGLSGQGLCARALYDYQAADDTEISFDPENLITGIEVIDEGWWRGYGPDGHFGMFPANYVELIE
UniProt P63241: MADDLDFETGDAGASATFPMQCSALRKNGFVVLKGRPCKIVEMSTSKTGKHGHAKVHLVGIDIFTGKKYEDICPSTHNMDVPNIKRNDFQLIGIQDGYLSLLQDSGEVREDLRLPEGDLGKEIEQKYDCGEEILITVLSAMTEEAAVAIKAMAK
UniProt P02538: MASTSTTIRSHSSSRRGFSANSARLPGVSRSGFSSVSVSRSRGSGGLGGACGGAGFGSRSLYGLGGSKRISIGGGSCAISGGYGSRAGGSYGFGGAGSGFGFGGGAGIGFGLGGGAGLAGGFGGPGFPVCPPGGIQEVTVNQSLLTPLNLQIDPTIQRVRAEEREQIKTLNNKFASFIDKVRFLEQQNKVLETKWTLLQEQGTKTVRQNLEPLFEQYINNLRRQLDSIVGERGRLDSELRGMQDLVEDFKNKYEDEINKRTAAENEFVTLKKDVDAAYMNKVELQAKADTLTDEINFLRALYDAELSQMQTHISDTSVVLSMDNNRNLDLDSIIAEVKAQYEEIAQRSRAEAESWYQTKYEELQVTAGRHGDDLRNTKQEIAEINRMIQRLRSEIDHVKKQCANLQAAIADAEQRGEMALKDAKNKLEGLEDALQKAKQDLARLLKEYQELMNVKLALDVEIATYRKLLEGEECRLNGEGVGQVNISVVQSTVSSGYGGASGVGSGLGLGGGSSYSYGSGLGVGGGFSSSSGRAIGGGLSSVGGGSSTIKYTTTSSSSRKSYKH
UniProt Q05BQ5: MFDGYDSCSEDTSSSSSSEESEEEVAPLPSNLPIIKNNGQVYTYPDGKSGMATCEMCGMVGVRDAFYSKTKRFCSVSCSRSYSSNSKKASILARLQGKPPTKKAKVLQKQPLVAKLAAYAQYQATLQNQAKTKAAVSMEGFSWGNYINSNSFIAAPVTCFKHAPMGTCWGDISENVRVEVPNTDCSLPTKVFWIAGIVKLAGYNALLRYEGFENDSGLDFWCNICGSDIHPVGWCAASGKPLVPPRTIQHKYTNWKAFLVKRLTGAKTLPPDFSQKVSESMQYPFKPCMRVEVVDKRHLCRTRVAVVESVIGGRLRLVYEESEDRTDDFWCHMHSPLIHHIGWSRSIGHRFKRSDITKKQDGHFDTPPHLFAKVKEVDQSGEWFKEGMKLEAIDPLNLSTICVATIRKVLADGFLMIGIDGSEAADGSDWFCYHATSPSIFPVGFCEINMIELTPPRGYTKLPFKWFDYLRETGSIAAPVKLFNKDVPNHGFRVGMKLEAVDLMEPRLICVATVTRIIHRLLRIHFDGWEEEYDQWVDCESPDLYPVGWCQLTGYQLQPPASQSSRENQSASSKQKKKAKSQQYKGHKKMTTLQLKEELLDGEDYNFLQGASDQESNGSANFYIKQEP
UniProt P09429: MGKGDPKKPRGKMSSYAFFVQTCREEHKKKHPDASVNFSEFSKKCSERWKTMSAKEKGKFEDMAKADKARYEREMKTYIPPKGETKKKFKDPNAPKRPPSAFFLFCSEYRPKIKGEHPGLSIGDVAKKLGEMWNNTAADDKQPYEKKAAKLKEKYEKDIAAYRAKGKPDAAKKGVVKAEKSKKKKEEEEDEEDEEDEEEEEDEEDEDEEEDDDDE

B1: TRAF4 (protein, UniProt Q9BUZ4 1-470)
chain: MPGFDYKFLEKPKRRLLCPLCGKPMREPVQVSTCGHRFCDTCLQEFLSEGVFKCPEDQLPLDYAKIYPDPELEVQVLGLPIRCIHSEEGCRWSGPLRHLQGHLNTCSFNVIPCPNRCPMKLSRRDLPAHLQHDCPKRRLKCEFCGCDFSGEAYESHEGMCPQESVYCENKCGARMMRRLLAQHATSECPKRTQPCTYCTKEFVFDTIQSHQYQCPRLPVACPNQCGVGTVAREDLPGHLKDSCNTALVLCPFKDSGCKHRCPKLAMARHVEESVKPHLAMMCALVSRQRQELQELRRELEELSVGSDGVLIWKIGSYGRRLQEAKAKPNLECFSPAFYTHKYGYKLQVSAFLNGNGSGEGTHLSLYIRVLPGAFDNLLEWPFARRVTFSLLDQSDPGLAKPQHVTETFHPDPNWKNFQKPGTWRGSLDESSLGFGYPKFISHQDIRKRNYVRDDAVFIRAAVELPRKILS
B2: NR1H4 (protein, UniProt Q96RI1 1-486)
chain: MVMQFQGLENPIQISPHCSCTPSGFFMEMMSMKPAKGVLTEQVAGPLGQNLEVEPYSQYSNVQFPQVQPQISSSSYYSNLGFYPQQPEEWYSPGIYELRRMPAETLYQGETEVAEMPVTKKPRMGASAGRIKGDELCVVCGDRASGYHYNALTCEGCKGFFRRSITKNAVYKCKNGGNCVMDMYMRRKCQECRLRKCKEMGMLAECMYTGLLTEIQCKSKRLRKNVKQHADQTVNEDSEGRDLRQVTSTTKSCREKTELTPDQQTLLHFIMDSYNKQRMPQEITNKILKEEFSAEENFLILTEMATNHVQVLVEFTKKLPGFQTLDHEDQIALLKGSAVEAMFLRSAEIFNKKLPSGHSDLLEERIRNSGISDEYITPMFSFYKSIGELKMTQEEYALLTAIVILSPDRQYIKDREAVEKLQEPLLDVLQKLCKIHQPENPQHFACLLGRLTELRTFNHHHAEMLMSWRVNDHKFTPLLCEIWDVQ
B3: ECH1 (protein, UniProt Q13011 34-328)
chain: TGSSAQEEASGVALGEAPDHSYESLRVTSAQKHVLHVQLNRPNKRNAMNKVFWREMVECFNKISRDADCRAVVISGAGKMFTAGIDLMDMASDILQPKGDDVARISWYLRDIITRYQETFNVIERCPKPVIAAVHGGCIGGGVDLVTACDIRYCAQDAFFQVKEVDVGLAADVGTLQRLPKVIGNQSLVNELAFTARKMMADEALGSGLVSRVFPDKEVMLDAALALAAEISSKSPVAVQSTKVNLLYSRDHSVAESLNYVASWNMSMLQTQDLVKSVQATTENKELKTVTFSKL
B4: CRYAB (protein, UniProt P02511 1-175)
chain: MDIAIHHPWIRRPFFPFHSPSRLFDQFFGEHLLESDLFPTSTSLSPFYLRPPSFLRAPSWFDTGLSEMRLEKDRFSVNLDVKHFSPEELKVKVLGDVIEVHGKHEERQDEHGFISREFHRKYRIPADVDPLTITSSLSSDGVLTVNGPRKQVSGPERTIPITREEKPAVTAAPKK

These molecules were tested against Erythropoietin-producing human hepatocellular B4 (EPHB4) (human (endogenous in SCC9)) (UniProt P54760) (assay: affinity purification with mass spectrometry; protein immunoprecipitated by anti-EPHB4 antibody from SCC9 cells, digested, proteomics screening by mass spectrometry; compared with the IgG control group).

binding, binds:
ACTN4 (from UniProt O43707 1-911)
ADCY2 (from UniProt Q08462 1-1091)
CALR (from UniProt P27797 18-417)
CANX (from UniProt P27824 21-592)
DBNL (from UniProt Q9UJU6 1-430)
EIF5A (from UniProt P63241 1-154)
KRT6A (from UniProt P02538 1-564)
MBTD1 (from UniProt Q05BQ5 1-628)
SLC3A2 (from UniProt P08195 1-529)
high-mobility group box 1 (HMGB1) (from UniProt P09429 1-215)
B1
B2
B3
B4
